Experimental findings from paper PMC11053077, “HBO1 catalyzes lysine lactylation and mediates histone H3K9la to regulate gene transcription” (Nature Communications, 2024) are described below.

Sequences of proteins named here, by UniProt entry; tags and fusion partners are left off.
UniProt O95251: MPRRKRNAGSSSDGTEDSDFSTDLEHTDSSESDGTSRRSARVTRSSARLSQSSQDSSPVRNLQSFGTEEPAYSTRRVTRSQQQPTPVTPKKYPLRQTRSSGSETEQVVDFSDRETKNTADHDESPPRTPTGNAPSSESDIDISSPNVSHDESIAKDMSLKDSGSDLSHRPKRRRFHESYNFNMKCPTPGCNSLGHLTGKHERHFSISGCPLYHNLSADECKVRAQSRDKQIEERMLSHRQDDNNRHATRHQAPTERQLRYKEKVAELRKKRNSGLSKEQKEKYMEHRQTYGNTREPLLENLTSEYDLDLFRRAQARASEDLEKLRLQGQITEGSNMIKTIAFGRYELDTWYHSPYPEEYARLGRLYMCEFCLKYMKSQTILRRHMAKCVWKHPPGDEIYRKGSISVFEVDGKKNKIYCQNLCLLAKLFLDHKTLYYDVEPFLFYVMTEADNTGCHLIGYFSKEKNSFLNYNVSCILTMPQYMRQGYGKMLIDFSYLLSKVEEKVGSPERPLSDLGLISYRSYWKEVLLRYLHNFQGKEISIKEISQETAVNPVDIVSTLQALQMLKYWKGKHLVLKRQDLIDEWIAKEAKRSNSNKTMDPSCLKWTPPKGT
UniProt Q6IE81: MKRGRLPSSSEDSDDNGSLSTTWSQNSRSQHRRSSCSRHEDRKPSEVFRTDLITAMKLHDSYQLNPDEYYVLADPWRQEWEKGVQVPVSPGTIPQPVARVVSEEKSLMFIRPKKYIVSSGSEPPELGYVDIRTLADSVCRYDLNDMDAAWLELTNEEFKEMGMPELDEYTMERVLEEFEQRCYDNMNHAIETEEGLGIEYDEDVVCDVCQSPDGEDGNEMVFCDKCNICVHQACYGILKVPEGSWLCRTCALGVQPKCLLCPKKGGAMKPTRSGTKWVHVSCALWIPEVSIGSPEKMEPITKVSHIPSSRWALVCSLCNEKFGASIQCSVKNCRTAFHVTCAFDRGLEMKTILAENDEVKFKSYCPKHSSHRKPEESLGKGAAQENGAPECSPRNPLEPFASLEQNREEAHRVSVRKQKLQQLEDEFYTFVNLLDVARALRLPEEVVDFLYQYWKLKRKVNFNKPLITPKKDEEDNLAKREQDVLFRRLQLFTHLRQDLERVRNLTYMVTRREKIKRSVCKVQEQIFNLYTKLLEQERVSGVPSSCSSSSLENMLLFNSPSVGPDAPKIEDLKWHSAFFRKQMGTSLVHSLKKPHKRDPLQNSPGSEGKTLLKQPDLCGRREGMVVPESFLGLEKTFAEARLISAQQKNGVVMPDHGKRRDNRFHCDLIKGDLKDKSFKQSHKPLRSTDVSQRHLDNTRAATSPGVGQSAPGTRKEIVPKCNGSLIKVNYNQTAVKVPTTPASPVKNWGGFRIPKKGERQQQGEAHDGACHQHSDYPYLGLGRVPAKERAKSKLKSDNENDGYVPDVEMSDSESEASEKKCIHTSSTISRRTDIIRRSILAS

No constants are given. Whether binding was seen depends on the method and setting. Binding seen in cells or lysates may run through a third protein. Some binding calls cover weakened binding; strength is not graded here.

The target in this experiment is Flag-HBO1 (UniProt O95251). As to the kind of experiment: co-IP; Flag-HBO1 co-transfected with its scaffold protein in HEK293T; 48 h after transfection cells lysed (50 mM Tris-HCl pH 7.5, 150 mM NaCl, 1% Triton X-100, 1 mM EDTA, 1 mM DTT, 8% glycerol); supernatant on anti-Flag M2 beads overnight at 4 °C; washed 3 times with lysis buffer; eluted with Flag peptide.

Consider Flag-JADE1 (from UniProt Q6IE81 1-842), for which the binding entry is “binds”.
